# Results reported in the supplement of paper PMC10849652.
# Amino acid sequences for entries named in this document (tags omitted). A change or cut given only in a name is not applied to a line headed by its entry.
# UniProt Q9BQ89: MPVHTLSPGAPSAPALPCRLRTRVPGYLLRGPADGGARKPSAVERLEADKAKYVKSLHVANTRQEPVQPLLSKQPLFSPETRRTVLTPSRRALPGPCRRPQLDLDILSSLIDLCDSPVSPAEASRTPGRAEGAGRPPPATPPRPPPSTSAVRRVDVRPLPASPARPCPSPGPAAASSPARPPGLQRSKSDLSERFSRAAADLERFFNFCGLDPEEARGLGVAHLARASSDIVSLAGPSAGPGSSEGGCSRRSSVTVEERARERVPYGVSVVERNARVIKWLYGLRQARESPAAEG
# UniProt Q9NVM1: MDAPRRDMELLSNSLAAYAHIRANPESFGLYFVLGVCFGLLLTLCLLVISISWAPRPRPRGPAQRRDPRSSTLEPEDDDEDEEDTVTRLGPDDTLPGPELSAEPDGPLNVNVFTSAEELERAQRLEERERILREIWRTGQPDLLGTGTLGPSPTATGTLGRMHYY
# UniProt O94988: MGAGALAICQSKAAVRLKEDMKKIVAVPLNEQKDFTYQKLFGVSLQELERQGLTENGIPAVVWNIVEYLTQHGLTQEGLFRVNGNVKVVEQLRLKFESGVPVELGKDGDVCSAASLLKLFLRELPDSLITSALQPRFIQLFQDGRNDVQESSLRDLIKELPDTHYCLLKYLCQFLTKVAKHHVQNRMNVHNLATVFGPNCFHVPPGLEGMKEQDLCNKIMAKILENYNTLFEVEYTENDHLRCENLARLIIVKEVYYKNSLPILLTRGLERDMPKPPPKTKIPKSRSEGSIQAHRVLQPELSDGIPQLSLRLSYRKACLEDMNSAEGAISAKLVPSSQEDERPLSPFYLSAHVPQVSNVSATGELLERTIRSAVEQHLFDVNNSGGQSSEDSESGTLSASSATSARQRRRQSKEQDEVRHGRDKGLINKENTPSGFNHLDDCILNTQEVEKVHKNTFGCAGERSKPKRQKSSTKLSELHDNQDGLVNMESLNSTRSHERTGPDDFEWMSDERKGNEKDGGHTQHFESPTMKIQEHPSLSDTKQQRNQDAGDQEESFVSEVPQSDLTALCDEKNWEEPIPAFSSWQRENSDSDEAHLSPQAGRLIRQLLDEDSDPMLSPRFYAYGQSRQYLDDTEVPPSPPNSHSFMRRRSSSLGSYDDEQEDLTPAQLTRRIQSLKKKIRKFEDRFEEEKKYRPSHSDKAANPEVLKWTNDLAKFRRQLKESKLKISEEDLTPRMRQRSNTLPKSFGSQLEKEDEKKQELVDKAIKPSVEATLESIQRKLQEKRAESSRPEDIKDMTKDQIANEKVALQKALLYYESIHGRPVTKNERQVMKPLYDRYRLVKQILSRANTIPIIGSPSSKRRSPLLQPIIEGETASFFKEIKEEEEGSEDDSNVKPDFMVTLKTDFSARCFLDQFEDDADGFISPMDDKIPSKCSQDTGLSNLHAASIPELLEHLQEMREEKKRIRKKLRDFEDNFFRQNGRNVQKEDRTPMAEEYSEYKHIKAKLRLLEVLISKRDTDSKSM
# UniProt Q9UQ84: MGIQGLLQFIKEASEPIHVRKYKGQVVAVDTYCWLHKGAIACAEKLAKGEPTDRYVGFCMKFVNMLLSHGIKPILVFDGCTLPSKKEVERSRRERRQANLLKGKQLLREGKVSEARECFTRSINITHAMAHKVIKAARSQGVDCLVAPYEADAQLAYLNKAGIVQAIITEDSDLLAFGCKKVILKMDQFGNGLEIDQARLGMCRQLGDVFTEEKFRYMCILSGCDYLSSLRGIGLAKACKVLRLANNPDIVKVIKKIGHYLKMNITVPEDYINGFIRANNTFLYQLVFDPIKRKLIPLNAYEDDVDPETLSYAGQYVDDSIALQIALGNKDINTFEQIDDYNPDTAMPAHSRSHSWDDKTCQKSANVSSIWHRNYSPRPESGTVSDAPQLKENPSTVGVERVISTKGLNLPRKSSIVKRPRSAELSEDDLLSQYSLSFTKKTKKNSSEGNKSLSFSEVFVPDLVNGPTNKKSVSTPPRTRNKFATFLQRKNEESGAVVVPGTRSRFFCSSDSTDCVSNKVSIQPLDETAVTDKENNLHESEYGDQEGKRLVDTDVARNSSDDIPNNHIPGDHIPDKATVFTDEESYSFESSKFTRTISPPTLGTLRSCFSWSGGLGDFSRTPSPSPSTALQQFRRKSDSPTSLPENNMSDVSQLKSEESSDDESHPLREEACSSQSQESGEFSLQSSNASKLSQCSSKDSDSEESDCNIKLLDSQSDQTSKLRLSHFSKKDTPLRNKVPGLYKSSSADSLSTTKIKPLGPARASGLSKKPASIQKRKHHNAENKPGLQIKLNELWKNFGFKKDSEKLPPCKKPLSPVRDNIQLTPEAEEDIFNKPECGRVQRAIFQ
# UniProt Q5XKK7: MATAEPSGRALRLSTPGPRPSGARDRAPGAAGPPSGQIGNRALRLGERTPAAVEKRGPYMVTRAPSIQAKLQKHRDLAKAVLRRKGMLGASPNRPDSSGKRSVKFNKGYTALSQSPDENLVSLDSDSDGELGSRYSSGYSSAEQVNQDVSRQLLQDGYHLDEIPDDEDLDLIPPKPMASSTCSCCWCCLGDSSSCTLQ
# UniProt Q9NY74: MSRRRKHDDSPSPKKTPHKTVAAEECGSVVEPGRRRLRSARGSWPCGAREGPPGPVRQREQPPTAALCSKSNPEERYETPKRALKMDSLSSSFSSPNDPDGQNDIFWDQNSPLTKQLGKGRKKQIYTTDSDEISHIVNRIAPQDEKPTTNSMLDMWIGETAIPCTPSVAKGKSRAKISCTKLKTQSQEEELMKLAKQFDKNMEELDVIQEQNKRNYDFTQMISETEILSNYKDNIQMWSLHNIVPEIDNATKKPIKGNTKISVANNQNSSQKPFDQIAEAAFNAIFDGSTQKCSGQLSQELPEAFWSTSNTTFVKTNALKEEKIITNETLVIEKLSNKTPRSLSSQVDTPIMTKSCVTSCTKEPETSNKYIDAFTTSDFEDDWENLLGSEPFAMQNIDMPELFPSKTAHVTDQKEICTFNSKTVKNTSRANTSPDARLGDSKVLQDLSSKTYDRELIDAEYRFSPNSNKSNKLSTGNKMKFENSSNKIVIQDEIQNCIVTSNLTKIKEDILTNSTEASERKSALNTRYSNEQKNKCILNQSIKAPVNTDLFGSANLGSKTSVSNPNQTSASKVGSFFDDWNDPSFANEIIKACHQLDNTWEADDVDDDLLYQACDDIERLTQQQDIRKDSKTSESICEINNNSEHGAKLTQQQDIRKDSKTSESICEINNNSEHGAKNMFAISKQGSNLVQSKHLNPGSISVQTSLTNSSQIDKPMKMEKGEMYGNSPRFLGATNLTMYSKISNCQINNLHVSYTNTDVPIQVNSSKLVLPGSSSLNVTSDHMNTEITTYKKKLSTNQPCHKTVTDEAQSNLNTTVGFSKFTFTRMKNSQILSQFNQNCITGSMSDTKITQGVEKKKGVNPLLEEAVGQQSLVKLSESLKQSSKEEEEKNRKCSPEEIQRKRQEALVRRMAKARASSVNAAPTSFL
# UniProt Q9BVV8: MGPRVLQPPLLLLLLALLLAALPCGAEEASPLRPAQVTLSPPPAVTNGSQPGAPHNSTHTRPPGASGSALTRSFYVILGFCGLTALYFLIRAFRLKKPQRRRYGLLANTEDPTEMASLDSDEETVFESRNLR
# UniProt Q9P2D6: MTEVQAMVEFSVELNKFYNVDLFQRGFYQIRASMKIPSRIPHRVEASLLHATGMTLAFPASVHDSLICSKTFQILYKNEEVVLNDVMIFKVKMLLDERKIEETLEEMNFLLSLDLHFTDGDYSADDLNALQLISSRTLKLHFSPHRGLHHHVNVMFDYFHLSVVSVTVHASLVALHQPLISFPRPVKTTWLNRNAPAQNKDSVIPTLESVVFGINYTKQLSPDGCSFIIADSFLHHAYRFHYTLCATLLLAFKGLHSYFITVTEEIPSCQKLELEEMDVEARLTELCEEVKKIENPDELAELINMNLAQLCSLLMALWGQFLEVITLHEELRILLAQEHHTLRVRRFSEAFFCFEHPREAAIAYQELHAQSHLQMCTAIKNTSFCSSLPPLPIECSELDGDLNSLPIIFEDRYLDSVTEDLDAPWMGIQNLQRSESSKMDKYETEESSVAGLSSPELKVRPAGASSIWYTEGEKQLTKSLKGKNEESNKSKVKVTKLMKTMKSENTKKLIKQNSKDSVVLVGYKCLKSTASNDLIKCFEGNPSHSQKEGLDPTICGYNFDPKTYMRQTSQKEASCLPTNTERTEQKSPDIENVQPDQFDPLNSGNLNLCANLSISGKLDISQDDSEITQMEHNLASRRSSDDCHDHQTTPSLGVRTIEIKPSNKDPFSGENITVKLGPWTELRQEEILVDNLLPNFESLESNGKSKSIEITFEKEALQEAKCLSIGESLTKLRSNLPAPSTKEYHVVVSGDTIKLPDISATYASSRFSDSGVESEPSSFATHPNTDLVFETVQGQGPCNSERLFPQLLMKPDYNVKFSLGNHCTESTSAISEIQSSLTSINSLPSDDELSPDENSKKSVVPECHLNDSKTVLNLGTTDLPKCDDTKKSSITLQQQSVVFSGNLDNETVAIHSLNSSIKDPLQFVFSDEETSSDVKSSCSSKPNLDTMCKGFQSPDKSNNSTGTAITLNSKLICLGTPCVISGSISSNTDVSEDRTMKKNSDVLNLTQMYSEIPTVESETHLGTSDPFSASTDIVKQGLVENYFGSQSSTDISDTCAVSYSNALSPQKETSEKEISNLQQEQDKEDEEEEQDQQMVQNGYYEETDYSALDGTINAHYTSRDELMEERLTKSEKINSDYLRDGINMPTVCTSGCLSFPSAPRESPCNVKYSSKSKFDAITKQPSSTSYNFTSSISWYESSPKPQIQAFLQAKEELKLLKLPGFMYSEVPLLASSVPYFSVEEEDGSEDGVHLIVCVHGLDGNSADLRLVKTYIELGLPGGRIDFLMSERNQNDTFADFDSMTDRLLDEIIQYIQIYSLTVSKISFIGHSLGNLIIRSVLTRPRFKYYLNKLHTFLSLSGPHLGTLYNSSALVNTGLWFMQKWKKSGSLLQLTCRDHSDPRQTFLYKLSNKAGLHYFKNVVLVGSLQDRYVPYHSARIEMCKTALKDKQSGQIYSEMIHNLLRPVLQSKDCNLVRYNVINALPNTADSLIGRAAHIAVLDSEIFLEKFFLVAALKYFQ
# UniProt P43268: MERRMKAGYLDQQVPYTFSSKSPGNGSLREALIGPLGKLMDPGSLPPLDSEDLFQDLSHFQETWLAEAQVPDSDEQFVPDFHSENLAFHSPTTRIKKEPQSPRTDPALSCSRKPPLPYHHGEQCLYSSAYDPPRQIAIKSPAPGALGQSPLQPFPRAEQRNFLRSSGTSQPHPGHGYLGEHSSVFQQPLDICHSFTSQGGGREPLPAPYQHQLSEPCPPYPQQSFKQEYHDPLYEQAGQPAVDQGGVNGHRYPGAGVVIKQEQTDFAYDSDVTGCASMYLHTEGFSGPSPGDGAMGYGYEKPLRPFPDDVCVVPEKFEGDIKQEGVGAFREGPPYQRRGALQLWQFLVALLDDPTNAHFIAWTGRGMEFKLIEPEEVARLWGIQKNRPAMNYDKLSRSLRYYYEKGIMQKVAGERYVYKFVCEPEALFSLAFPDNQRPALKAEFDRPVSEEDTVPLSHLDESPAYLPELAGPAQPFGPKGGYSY
# UniProt P41161: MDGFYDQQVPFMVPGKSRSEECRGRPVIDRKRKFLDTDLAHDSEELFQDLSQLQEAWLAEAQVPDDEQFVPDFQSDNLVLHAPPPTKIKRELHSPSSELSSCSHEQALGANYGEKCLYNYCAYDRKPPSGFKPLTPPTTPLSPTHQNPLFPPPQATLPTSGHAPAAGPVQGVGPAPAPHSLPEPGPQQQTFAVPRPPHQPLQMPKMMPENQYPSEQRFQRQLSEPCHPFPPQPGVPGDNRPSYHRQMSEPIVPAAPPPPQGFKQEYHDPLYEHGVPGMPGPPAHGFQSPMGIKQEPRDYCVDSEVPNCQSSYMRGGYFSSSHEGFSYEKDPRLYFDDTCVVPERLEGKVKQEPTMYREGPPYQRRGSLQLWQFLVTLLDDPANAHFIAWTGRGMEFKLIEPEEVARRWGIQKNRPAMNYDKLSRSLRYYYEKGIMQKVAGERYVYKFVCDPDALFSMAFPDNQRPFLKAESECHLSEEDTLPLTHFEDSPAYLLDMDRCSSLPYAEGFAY
# UniProt Q8IW50: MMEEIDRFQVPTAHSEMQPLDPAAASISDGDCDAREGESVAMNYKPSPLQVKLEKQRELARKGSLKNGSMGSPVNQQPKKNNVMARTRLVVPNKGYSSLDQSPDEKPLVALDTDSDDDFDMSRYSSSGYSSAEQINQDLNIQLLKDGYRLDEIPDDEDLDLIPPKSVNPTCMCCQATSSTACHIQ
# UniProt Q6NZ36: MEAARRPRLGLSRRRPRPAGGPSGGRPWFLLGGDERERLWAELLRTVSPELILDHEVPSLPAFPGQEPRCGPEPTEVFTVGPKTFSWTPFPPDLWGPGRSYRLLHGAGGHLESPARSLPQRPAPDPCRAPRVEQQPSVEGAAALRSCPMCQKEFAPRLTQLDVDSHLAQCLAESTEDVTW
# The other results are listed elsewhere or left out.
# What was measured:
# Test in all cases: log2 fold change, soluble protein after heating vs DMSO (PISA); higher = thermal stabilisation; K562 lysate, 10 uM; active = over 0.2 and 3.5 SD of the protein, either way, in both replicates (recomputed)
# [1] = compound: C1=CC=C(C=C1)[C@H](COC2=CC3=C(C=C2)NC(=O)N3)NC(=O)C4=CC=CN(C4=O)CC5=CC(=C(C=C5)F)F
# In short: (§1)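 Quantification was by TMTpro 16plex LC-MS/MS with equalised channel sums, applied to the supernatant after 21,000xg for 90 min. Samples were crude K562 extract at 1 mg/mL protein in PBS pH 7.4 with 1 mM MgCl2, treated with 10 μM compound for 30 min, heated for 3 min across 48°C-58°C, pooled and brought to 0.5% NP-40 at 4°C. Values are log-two fold changes in thermal stability relative to solvent controls, from duplicates.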
# [2] = compound: CC1=C(SC2=C1C(=N[C@H](C3=NN=C(N32)C)CC(=O)N)C4=CC=C(C=C4)Cl)C
# In short: as §1
# [3] = compound: c1ccc([C@@H]2C[C@H]2NC2CCNCC2)cc1
# In short: as §1
# [4] = compound: CC1=C2C(=CC=C1)N=C(N(C2=O)C3=CC=CC=C3C)CN4C=NC5=C(N=CN=C54)N
# In short: as §1
# [5] = compound: Cc1sc2c(c1C)C(c1ccc(Cl)cc1)=N[C@@H](CC(=O)OC(C)(C)C)c1nnc(C)n1-2
# In short: as §1
target,measurement,setting,value
FAM110A (UniProt Q9BQ89),log2 fold change,[1],inactive: 0.245
same,log2 fold change,[2],inactive: 0.143
same,log2 fold change,[3],inactive: -0.15
F2R (UniProt P25116),log2 fold change,[3],inactive: 0.032
FAM193B (UniProt Q96PV7),log2 fold change,[4],inactive: 0.064
same,log2 fold change,[3],inactive: -0.054
EVA1B (UniProt Q9NVM1),log2 fold change,[5],inactive: -0.152
FAM13A (UniProt O94988),log2 fold change,[5],inactive: -0.282
ETV1 (UniProt P50549),log2 fold change,[5],inactive: 0.08
FAM3A (UniProt Q9BU27),log2 fold change,[5],inactive: 0.442
EXO1 (UniProt Q9UQ84),log2 fold change,[4],inactive: 0.339
same,log2 fold change,[3],inactive: -0.063
FAM219B (UniProt Q5XKK7),log2 fold change,[1],inactive: -0.119
same,log2 fold change,[2],inactive: 0.017
same,log2 fold change,[3],inactive: 0.04
ETAA1 (UniProt Q9NY74),log2 fold change,[4],inactive: 0.06
EVI2B isoform 2 (UniProt P34910),log2 fold change,[3],inactive: -0.047
EXOC6B (UniProt Q9Y2D4),log2 fold change,[4],inactive: 0.106
FAM174C (UniProt Q9BVV8),log2 fold change,[3],inactive: -0.129
EURL (UniProt Q9NYK6),log2 fold change,[5],inactive: -0.085
same,log2 fold change,[3],inactive: -0.006
FAM135A (UniProt Q9P2D6),log2 fold change,[1],inactive: 0.076
same,log2 fold change,[2],inactive: 0.087
same,log2 fold change,[5],inactive: 0.045
same,log2 fold change,[3],inactive: -0.108
ETV4 (UniProt P43268),log2 fold change,[4],inactive: 0.036
same,log2 fold change,[3],inactive: -0.078
"FAM120A, A0A494C0Y9",log2 fold change,[5],inactive: -0.047
ETV5 isoform 2 (UniProt P41161),log2 fold change,[4],inactive: 0.04
same,log2 fold change,[3],inactive: -0.047
FAM219A (UniProt Q8IW50),log2 fold change,[1],inactive: -0.011
same,log2 fold change,[2],inactive: 0.057
same,log2 fold change,[5],inactive: 0.025
same,log2 fold change,[3],inactive: -0.002
FAAP20 isoform 2 (UniProt Q6NZ36),log2 fold change,[3],inactive: 0.152

# In a second layout: results already given
target	measurement	setting	value
FAM110A (UniProt Q9BQ89)	log2 fold change	[3]	inactive: -0.15
F2R (UniProt P25116)	log2 fold change	[3]	inactive: 0.032
